# Data published in PubChem BioAssay AID662 (National Center for Advancing Translational Sciences (NCATS), 2007).
# Some of the results follow. Shown are side measurements of this screen, not its main read-out; they come without a call. The list favours compounds with an active or inconclusive main result. Words in brackets tell the shape of the fitted curve; partial curves, single points and poor fits give uncertain potencies.
# Assay: Cell signaling CRE-BLA (Fsk stim)
# Settings: CHO CRE-bla reporter (cAMP response element driving beta-lactamase), forskolin EC10, beta-lactamase ratio; measured here: 460 nm blue channel
# How it was run: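 Modulation of forskolin-driven signalling is measured in CHO cells carrying a CRE-controlled beta-lactamase reporter. Cells are stimulated with EC10 NKH 477 in the presence of titrated compound for 3 h at 37 °C, then loaded with CCF4 for 2 h at room temperature.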
row,Compound,AC50
1,COC(=O)c1[nH]c2ccc(C)cc2c1NS(=O)(=O)c1ccc(F)c(C)c1,"15.8 µM [rising, single point]"
2,CC(C)(C)Nc1nc(OCC(F)(F)F)nc(OCC(F)(F)F)n1,"15.8 µM [rising, partial curve]"
3,CC(C)CCn1c(=O)c2ccccc2n2c(CN(C)Cc3ccccc3)nnc12,"12.6 µM [rising, single point]"
4,O=C(CCn1nc(-c2ccc(Cl)cc2)ccc1=O)N1CCN(c2ccccn2)CC1,"10 µM [rising, partial curve]"
5,CCSc1ccccc1C(=O)n1nnc2ccccc21,"2 µM [falling, full curve]"
6,CCOC(=O)CSc1nnc(-c2nnc(SCC(=O)OCC)n2CC)n1CC,"2.51 µM [falling, full curve]"
7,NC(=O)c1cnn2c(C(F)(F)F)cc(-c3ccccc3)nc12,"25.1 µM [rising, single point]"
8,COc1nc(NCCc2ccc(OC)c(OC)c2)nc(OC)n1,"10 µM [rising, partial curve]"
9,CN=C(NC#N)NCCSCc1nc[nH]c1C,"10 µM [falling, full curve, poor fit]"
10,COc1cc(OC)cc(-c2nnc(SCc3c(F)cccc3Cl)o2)c1,"6.31 µM [rising, partial curve]"
11,CCOc1cc2[nH]c(=S)n(CCCOC)c(=O)c2cc1OCC,"25.1 µM [rising, single point]"
12,Cc1c(C(=O)N2CCN(c3ccccc3)CC2)sc2ncnc(N3CCN(c4ccccc4)CC3)c12,"3.16 µM [falling, single point]"
13,COc1ccc(OCC(=O)N2CCN(c3cccc(C(F)(F)F)c3)CC2)cc1,"12.6 µM [falling, partial curve]"
14,Cc1ccc(C(=O)[C@@H]2[C@@H]3[C@@H](C(=O)[C@@H]4OC[C@H]3O4)[C@@H]3C=Cc4ccccc4N23)cc1,"31.6 µM [falling, single point]"
15,COc1ccc(NC(=O)CSc2nc3c(c(=O)n2-c2ccc(F)cc2)SCC3)c(OC)c1,"3.16 µM [rising, full curve, poor fit]"
16,CCn1c(CSc2nc3ccccc3n2C)nc2ccccc21,"10 µM [rising, partial curve]"
17,CC1CCN(CCNC(=O)CCS(=O)(=O)c2ccc(Br)cc2)CC1,"0.794 µM [falling, partial curve]"
18,Cc1ccc2ccccc2c1CSc1nc(N)nc2c1ncn2CC(C)C,"3.98 µM [rising, partial curve]"
19,CCCN(c1ccc(C(C)C)cc1)S(=O)(=O)c1c(C)noc1C,"10 µM [rising, single point]"
20,CC(=O)c1cccc(NC(=O)N2CCCC2C(=O)NC2CCCCC2)c1 (configuration not stated),"15.8 µM [falling, single point]"
21,COCCn1c(-c2cc(OC)c(OC)c(OC)c2)nc2nc3ccccc3nc21,"3.98 µM [rising, partial curve, poor fit]"
22,Cc1nc2ccccc2c(=O)n1NC(=O)c1c(O)c2c(n(CC(C)C)c1=O)CCCC2,"6.31 µM [rising, partial curve]"
23,Clc1ccccc1-c1nn2c(Cn3cnc4ccccc43)nnc2s1,"15.8 µM [rising, single point]"

row,Compound,AC50
1,CCCCCCN(CCCCCC)C(=O)Cc1c(-c2ccc(F)cc2)[nH]c2ccccc12,"12.6 µM [falling, single point]"
2,O=C1c2ccccc2C(=O)N1CCc1nc2ccccc2c(=O)n1Cc1ccco1,"12.6 µM [rising, partial curve]"
3,COCCn1c(=S)[nH]c2ccc(N(C)C)cc2c1=O,"12.6 µM [rising, single point]"
4,O=c1c(CCc2ccccc2)nc2cnc(N3CCOCC3)nc2n1C1CC1,"20 µM [rising, single point]"
5,CCOC(=O)c1sc(C)c2c1NC(C)(c1cccs1)NC2=O (configuration not stated),"10 µM [rising, single point]"
6,O=C(OC1CCc2ccccc2C1=O)c1ccccc1O (configuration not stated),"12.6 µM [falling, partial curve]"
7,O=C(CSc1nc(Nc2ccccc2)nc(N2CCOCC2)n1)Nc1ccc2c(c1)OCCO2,"10 µM [rising, partial curve]"
8,CCNc1ncc2nc(-c3ccc(OC)cc3)c(=O)n(C)c2n1,"5.01 µM [rising, partial curve]"
9,N#Cc1nc(COc2ccccc2F)oc1N1CCCCCC1,"12.6 µM [rising, partial curve]"
10,O=C(CCn1nc(-c2ccccc2)c2ccccc2c1=O)NCC1CCCO1 (configuration not stated),"12.6 µM [rising, partial curve]"
11,CSc1nc(N)c2ncn([C@H]3O[C@H](COP(=O)(O)OP(=O)(O)O)[C@@H](O)[C@@H]3O)c2n1,"31.6 µM [falling, single point]"
12,CCN(CC(=O)NC1CCCC1)S(=O)(=O)c1ccc(C)cc1,"5.01 µM [falling, single point]"
13,COC(=O)c1ccc(CSc2nc3c(c(=O)n2-c2ccc(Br)cc2)SCC3)o1,"2.51 µM [rising, single point]"
14,CCc1cccc2c1NC(=O)[C@]21[C@@H]2C(=O)N(Cc3ccccc3)C(=O)[C@@H]2[C@@H]2CCCN21,"20 µM [falling, partial curve, poor fit]"
15,c1csc(CNc2ccnc(-c3ccoc3)n2)c1,"3.16 µM [rising, single point]"
16,COC(=O)c1cc2ccc(OC)c(OC)c2c(=O)s1,"12.6 µM [rising, single point]"
17,CCNc1ncc2nc(-c3cccs3)c(=O)n(C[C@H]3CCCO3)c2n1,"2.51 µM [rising, full curve]"
18,CCOC(=O)c1ccc(N2C(=O)C(O)=C(C(C)=O)C2c2ccc(O)c(OC)c2)cc1 (configuration not stated),"15.8 µM [falling, single point]"
19,COc1ccc2[nH]c(O)c(NC(C)=O)c2c1,"0.398 µM [rising, full curve]"
20,Cc1cccc(N2CCN(C(=O)C3CCN(S(=O)(=O)c4cccc5cccnc45)CC3)CC2C)c1 (configuration not stated),"25.1 µM [falling, single point]"
21,CCn1c(NCc2ccco2)nc2c1c(=O)n(C)c(=O)n2C,"10 µM [rising, partial curve]"
22,COc1ccc(OC)c(C(c2nnnn2C2CCCC2)N2CCc3ccccc3C2)c1 (configuration not stated),"15.8 µM [falling, partial curve]"
23,CSCC[C@H](NC(=O)C1CCN(S(=O)(=O)c2ccc(C)cc2)CC1)C(=O)NCc1ccco1,"0.00794 µM [falling, full curve, poor fit]"

# An excerpt from above in order of number of heavy atoms, high to low.
row,Compound,AC50
14,CCc1cccc2c1NC(=O)[C@]21[C@@H]2C(=O)N(Cc3ccccc3)C(=O)[C@@H]2[C@@H]2CCCN21,"20 µM [falling, partial curve, poor fit]"
2,O=C1c2ccccc2C(=O)N1CCc1nc2ccccc2c(=O)n1Cc1ccco1,"12.6 µM [rising, partial curve]"
10,O=C(CCn1nc(-c2ccccc2)c2ccccc2c1=O)NCC1CCCO1 (configuration not stated),"12.6 µM [rising, partial curve]"
8,CCNc1ncc2nc(-c3ccc(OC)cc3)c(=O)n(C)c2n1,"5.01 µM [rising, partial curve]"
6,O=C(OC1CCc2ccccc2C1=O)c1ccccc1O (configuration not stated),"12.6 µM [falling, partial curve]"

# (cont.)

row,Compound,AC50
1,Cc1ccc2[nH]c(-c3cccc(N)c3)cc2c1,"0.794 µM [falling, full curve, poor fit]"
2,COc1cccc(Cn2c(=O)c(-c3cc(F)cc(F)c3)nc3cnc(N4CCOCC4)nc32)c1,"5.01 µM [rising, partial curve]"
3,Cc1nc2ccccc2nc1N1CCCC1,"3.16 µM [rising, single point]"
4,COCc1cc(C)nc(N2CCN(c3ccccc3)CC2)c1C#N,"31.6 µM [rising, single point]"
5,Cc1nc(SCC(=O)N2CCN(C(=O)c3ccco3)CC2)c2c(C)c(C)sc2n1,"1.26 µM [rising, full curve]"
6,COc1cc(OC)c2c(C)c(Cl)c(=O)oc2c1,"10 µM [rising, partial curve]"
7,O=C(Nc1ccc(S(=O)(=O)NC2CCCCC2)cc1)c1ccc(Br)o1,"25.1 µM [rising, single point]"
8,CC(=O)N1CCc2cc(C(=O)CN3CCN(C(=O)c4ccco4)CC3)ccc21,"12.6 µM [falling, partial curve]"
9,CCNc1nc(NCC)nc(-n2nc(C)cc2C)n1,"12.6 µM [rising, partial curve]"
10,CC1CCN(c2nc(-c3ccccc3)c(C#N)c(=O)[nH]2)CC1,"0.501 µM [falling, partial curve]"
11,Cc1ccc(-c2nc3cnccn3c2Nc2ccc3c(c2)OCO3)o1,"10 µM [rising, partial curve]"
12,O=C(Nc1ccc2ccccc2c1)[C@@H]1C[C@H]1[C@@H](NP(=O)(c1ccccc1)c1ccccc1)c1ccccc1,"2 µM [falling, full curve, poor fit]"
13,Cc1nn(Cc2ccc(F)cc2)c(C)c1NC(=O)c1noc2c1CCCCC2,"25.1 µM [falling, single point]"
14,CCS(=O)(=O)N1CCC(C(=O)NCc2cccnc2)CC1,"0.398 µM [rising, full curve]"
15,CC1CCCN(C(=O)CSCC(=O)N=c2sc3ccccc3n2C)C1 (configuration not stated),"1.26 µM [falling, partial curve]"
16,CCCOc1ccccc1C1CC(=O)Nc2cc3c(cc21)OCO3 (configuration not stated),"10 µM [rising, partial curve]"
17,COCCNc1nc(-c2c(C)noc2C)nc2ccccc12,"12.6 µM [rising, partial curve]"
18,O=c1c2ccccc2nc2c3ccccc3c3nncn3n12,"10 µM [rising, partial curve]"
19,CN(C)C(=O)c1ccc(-c2nc(Nc3ccc(F)cc3)c3ccccc3n2)cc1,"3.16 µM [rising, full curve]"
20,CN(C)P(=NC(=O)COc1ccc(Cl)cc1Cl)(N(C)C)N(C)C,"3.98 µM [falling, single point]"
21,COC(=O)C(C#N)c1nc2ccccc2nc1N1CCCC1 (configuration not stated),"12.6 µM [rising, partial curve]"
